Laboratory results from patent US4108726A, “Sarcoidosis test” (Research Corporation, priority 1976, dated 1978).
At least one read-out could not be matched to a standard name with certainty. Where a SMILES comes first, the peptide text is derived from it.

System: L-histidyl-L-leucine peptidase
Assay: Hydrolysis of L-histidyl-L-leucine by human serum peptidase, fluorimetric
Type: biochemical
Settings: 0.02 mM L-histidyl-L-leucine, 250 μl assays, 10 μl serum from several patients
Experimental: Hydrolysis of the product L-histidyl-L-leucine was determined fluorimetrically by adding L-histidyl-L-leucine to an assay mixture which contained buffer and serum and was handled as described for the enzyme assays, including a zero time control. Hydrolysis was accompanied by a decrease in fluorescence from that obtained with the initial concentration as determined in the zero time control. The quantity hydrolyzed was determined by multiplying the fraction hydrolyzed (decrease in FI/initial FI) by the initial concentration. No correction was made for the fluorescence of L-histidine since it was only about 8% of the fluorescence of L-histidyl-L-leucine.
The activity of the L-histidyl-L-leucine hydrolyzing activity was measured in several sera under the conditions of the orginal assay (50 μl sera in 125 μl 0.1 M K phosphate-0.3 M NaCl, pH 8.3) using as substrate 0.2 mM L-histidyl-L-leucine, a concentration typically formed in the angiotensin converting enzyme reaction mixture. […] The velocity of the L-histidyl-L-leucine peptidase reaction was determined at varying L-histidyl-L-leucine concentrations. The Km for L-histidyl-L-leucine of the peptidase was estimated from l/.nu.-l/S plots, see Lineweaver, H. and Burk, D. (1934). J. Amer. Chem. Soc. 56, 658, to be 0.16 mM. […]

CC(C)C[C@H](NC(=O)[C@@H](N)Cc1c[nH]cn1)C(=O)O [L-histidyl-L-leucine] (H-His-Leu-OH)
L-histidyl-L-leucine formed likely to be hydrolyzed in the new assay system: less than 2.5%
